Laboratory results published in ChEMBL document CHEMBL4316593 (Eur J Med Chem, 2019).
Further values from the same series stand in other lists.

Assays:
Assay type in all cases: cell-based
Conditions in all cases: U-87MG ATCC
[1] = Inhibition of RTK/PI3K/AKT/mTOR signaling in human U87 cells assessed as down regulation of S100A11 gene expression at cytotoxic IC50 measured after 48 hrs relative to control
[2] = Inhibition of RTK/PI3K/AKT/mTOR signaling in human U87 cells assessed as up regulation of HEXIM1 gene expression at cytotoxic IC50 measured after 48 hrs relative to control
[3] = Inhibition of RTK/PI3K/AKT/mTOR signaling in human U87 cells assessed as up regulation of ALDH1L2 gene expression at cytotoxic IC50 measured after 48 hrs relative to control
[4] = Inhibition of RTK/PI3K/AKT/mTOR signaling in human U87 cells assessed as down regulation of CBFB gene expression at cytotoxic IC50 measured after 48 hrs relative to control
[5] = Inhibition of RTK/PI3K/AKT/mTOR signaling in human U87 cells assessed as down regulation of AP4B1 gene expression at cytotoxic IC50 measured after 48 hrs relative to control
[6] = Inhibition of RTK/PI3K/AKT/mTOR signaling in human U87 cells assessed as up regulation of inositol 1,4,5-trisphosphate receptor interacting protein-like 1 gene expression at cytotoxic IC50 measured after 48 hrs relative to control
[7] = Inhibition of RTK/PI3K/AKT/mTOR signaling in human U87 cells assessed as down regulation of SNX1 gene expression at cytotoxic IC50 measured after 48 hrs relative to control
[8] = Inhibition of RTK/PI3K/AKT/mTOR signaling in human U87 cells assessed as up regulation of keratin 19 gene expression at cytotoxic IC50 measured after 48 hrs relative to control
[9] = Inhibition of RTK/PI3K/AKT/mTOR signaling in human U87 cells assessed as up regulation of septin 10 gene expression at cytotoxic IC50 measured after 48 hrs relative to control
[10] = Inhibition of RTK/PI3K/AKT/mTOR signaling in human U87 cells assessed as up regulation of protein phosphatase 1 regulatory subunit 16A gene expression at cytotoxic IC50 measured after 48 hrs relative to control
[11] = Inhibition of RTK/PI3K/AKT/mTOR signaling in human U87 cells assessed as down regulation of TP53I3 gene expression at cytotoxic IC50 measured after 48 hrs relative to control
[12] = Inhibition of RTK/PI3K/AKT/mTOR signaling in human U87 cells assessed as up regulation of PBX2 gene expression at cytotoxic IC50 measured after 48 hrs relative to control
[13] = Inhibition of RTK/PI3K/AKT/mTOR signaling in human U87 cells assessed as up regulation of TMEM158 gene expression at cytotoxic IC50 measured after 48 hrs relative to control
[14] = Inhibition of RTK/PI3K/AKT/mTOR signaling in human U87 cells assessed as down regulation of GBA2 gene expression at cytotoxic IC50 measured after 48 hrs relative to control
[15] = Inhibition of RTK/PI3K/AKT/mTOR signaling in human U87 cells assessed as down regulation of DHCR24 gene expression at cytotoxic IC50 measured after 48 hrs relative to control
[16] = Inhibition of RTK/PI3K/AKT/mTOR signaling in human U87 cells assessed as down regulation of PIWIL2 gene expression at cytotoxic IC50 measured after 48 hrs relative to control
[17] = Inhibition of RTK/PI3K/AKT/mTOR signaling in human U87 cells assessed as down regulation of TOMM70 gene expression at cytotoxic IC50 measured after 48 hrs relative to control
[18] = Inhibition of RTK/PI3K/AKT/mTOR signaling in human U87 cells assessed as up regulation of DnaJ heat shock protein family (Hsp40) member C18 gene expression at cytotoxic IC50 measured after 48 hrs relative to control
[19] = Inhibition of RTK/PI3K/AKT/mTOR signaling in human U87 cells assessed as up regulation of LTBP3 gene expression at cytotoxic IC50 measured after 48 hrs relative to control
[20] = Inhibition of RTK/PI3K/AKT/mTOR signaling in human U87 cells assessed as down regulation of SPRR2D gene expression at cytotoxic IC50 measured after 48 hrs relative to control
[21] = Inhibition of RTK/PI3K/AKT/mTOR signaling in human U87 cells assessed as down regulation of ZNF714 gene expression at cytotoxic IC50 measured after 48 hrs relative to control
[22] = Inhibition of RTK/PI3K/AKT/mTOR signaling in human U87 cells assessed as up regulation of SLC38A2 gene expression at cytotoxic IC50 measured after 48 hrs relative to control
[23] = Inhibition of RTK/PI3K/AKT/mTOR signaling in human U87 cells assessed as up regulation of RALBP1 associated Eps domain containing 2 gene expression at cytotoxic IC50 measured after 48 hrs relative to control
[24] = Inhibition of RTK/PI3K/AKT/mTOR signaling in human U87 cells assessed as down regulation of BARD1 gene expression at cytotoxic IC50 measured after 48 hrs relative to control
[25] = Inhibition of RTK/PI3K/AKT/mTOR signaling in human U87 cells assessed as down regulation of CCT4 gene expression at cytotoxic IC50 measured after 48 hrs relative to control
[26] = Inhibition of RTK/PI3K/AKT/mTOR signaling in human U87 cells assessed as up regulation of MKX gene expression at cytotoxic IC50 measured after 48 hrs relative to control
[27] = Inhibition of RTK/PI3K/AKT/mTOR signaling in human U87 cells assessed as down regulation of EXOC6 gene expression at cytotoxic IC50 measured after 48 hrs relative to control
[28] = Inhibition of RTK/PI3K/AKT/mTOR signaling in human U87 cells assessed as down regulation of RBM14 gene expression at cytotoxic IC50 measured after 48 hrs relative to control
[29] = Inhibition of RTK/PI3K/AKT/mTOR signaling in human U87 cells assessed as down regulation of HUS1 gene expression at cytotoxic IC50 measured after 48 hrs relative to control
[30] = Inhibition of RTK/PI3K/AKT/mTOR signaling in human U87 cells assessed as up regulation of activating transcription factor 5 gene expression at cytotoxic IC50 measured after 48 hrs relative to control
[31] = Inhibition of RTK/PI3K/AKT/mTOR signaling in human U87 cells assessed as down regulation of CENPN gene expression at cytotoxic IC50 measured after 48 hrs relative to control
[32] = Inhibition of RTK/PI3K/AKT/mTOR signaling in human U87 cells assessed as up regulation of translocase of outer mitochondrial membrane 20 gene expression at cytotoxic IC50 measured after 48 hrs relative to control

Which results are given for `CC(=O)C(=NNc1ccccc1C#N)C(C)=O`?
log2FC [1]: -0.48; log2FC [2]: 0.596; log2FC [3]: 2.44; log2FC [4]: -0.532; log2FC [5]: -1.73; log2FC [6]: 1.26; log2FC [7]: -0.481; log2FC [8]: 1.55; log2FC [9]: 0.938; log2FC [10]: 1.02; log2FC [11]: -0.932; log2FC [12]: 1.6; log2FC [13]: 2.2; log2FC [14]: -0.449; log2FC [15]: -0.483; log2FC [16]: -3.23; log2FC [17]: -0.617; log2FC [18]: 1.22; log2FC [19]: 1.58; log2FC [20]: -7.91; log2FC [21]: -1.41; log2FC [22]: 2.37; log2FC [23]: 1.11; log2FC [24]: -1.35; log2FC [25]: -0.396; log2FC [26]: 1.75; log2FC [27]: -0.668; log2FC [28]: -2.18; log2FC [29]: -1.22; log2FC [30]: 1.53; log2FC [31]: -1.07; log2FC [32]: 1.12
